# Library screen at single concentrations

Sequences of proteins named here, by UniProt entry; tags and fusion partners are left off. Residues count along the entry.
UniProt Q4DA54, 1-478: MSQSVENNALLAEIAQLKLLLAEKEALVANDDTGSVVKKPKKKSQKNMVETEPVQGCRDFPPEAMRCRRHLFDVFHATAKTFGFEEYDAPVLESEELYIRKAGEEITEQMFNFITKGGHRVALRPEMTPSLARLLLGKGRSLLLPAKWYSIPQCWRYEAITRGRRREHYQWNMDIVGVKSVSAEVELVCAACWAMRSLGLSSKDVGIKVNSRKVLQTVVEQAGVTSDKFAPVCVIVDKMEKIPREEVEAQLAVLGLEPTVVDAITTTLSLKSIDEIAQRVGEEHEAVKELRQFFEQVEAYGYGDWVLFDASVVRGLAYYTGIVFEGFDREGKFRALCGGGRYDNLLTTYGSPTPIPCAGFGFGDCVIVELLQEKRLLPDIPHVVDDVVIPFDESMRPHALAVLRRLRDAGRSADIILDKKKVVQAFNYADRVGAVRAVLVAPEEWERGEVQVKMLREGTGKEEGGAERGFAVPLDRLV
UniProt P9WNZ1, whole entry: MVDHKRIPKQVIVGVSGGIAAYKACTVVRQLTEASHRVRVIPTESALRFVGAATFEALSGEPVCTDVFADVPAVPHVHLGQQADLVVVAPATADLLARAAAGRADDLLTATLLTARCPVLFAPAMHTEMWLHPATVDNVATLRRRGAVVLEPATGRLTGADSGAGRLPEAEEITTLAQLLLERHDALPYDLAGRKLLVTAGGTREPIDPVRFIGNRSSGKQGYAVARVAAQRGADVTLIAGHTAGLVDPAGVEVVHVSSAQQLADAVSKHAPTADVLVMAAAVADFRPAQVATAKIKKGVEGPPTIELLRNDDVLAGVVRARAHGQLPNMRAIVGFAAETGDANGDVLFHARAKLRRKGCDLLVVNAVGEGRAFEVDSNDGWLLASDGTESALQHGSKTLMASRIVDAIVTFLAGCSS

Each number is a percent effect as filed.
The record does not define 0% and 100%; most values in the screen are far below 50% and negative numbers occur (in some assays of this library far below -100).
The compounds are a random part of those screened.

TcHisRS: 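Histidine-tRNA ligase, Trypanosoma cruzi CL Brener (UniProt Q4DA54). Enzyme assay of histidyl-tRNA synthetase; the read-out is not stated. Tested at 30 µM. The record gives no direction; compounds that gave an IC50 in retests scored well above the rest, so higher reads as stronger inhibition. Size under these conditions: about 69,000 compounds, about 31 of them at 50% or above in at least one test.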
CoaBC: 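Enzyme assay of CoaBC with a phosphate dye (Biomol Green) read at 650 nm. Target: Coenzyme A biosynthesis protein CoaBC, Mycobacterium tuberculosis (UniProt P9WNZ1). Concentration: 30 µM. Direction is inferred from only a few compounds that gave an IC50; most scored high, so higher reads as stronger inhibition. Most strong results did not repeat in a second test. About 67,000 compounds were tested under these conditions; 0.06% (about 40) showed 50% or more at least once.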

Result for CC(C)c1nc(C2CCCN(C(=O)CS(=O)(=O)C(C)C)C2)no1 (centres undefined) was TcHisRS: 3.448%; CoaBC: 6.013%.
Result for O=C(c1cnccn1)N1C[C@@H]2CC[C@H](C1)N(C(=O)CCc1ccsc1)C2 was TcHisRS: -0.5025%; CoaBC: 0.3619%.
Result for CCC(C(=O)N(C)CCC1=CCN(C)CC1)c1ccccc1 (centres undefined) was TcHisRS: 4.878%; CoaBC: 1.646%.
Result for COc1ccc(C(=O)N2CC[C@@H](N3CCC(O)CC3)[C@H](O)C2)cc1C was TcHisRS: 5.946%; CoaBC: 5.128%.
Result for Cn1nc(C2CCN(CC(=O)NC3CC3)CC2)n(-c2ccccc2)c1=O was TcHisRS: 5.556%; CoaBC: 1.681%.
Result for CN(Cc1ccsc1)C(=O)c1cc(S(=O)(=O)N(C)C)ccc1Cl was TcHisRS: -0.5435%; CoaBC: 1.24%.
Result for COCCNc1ccc(CC2CCCN(C3CCCC3)C2)nn1 (centres undefined) was TcHisRS: 2.26%; CoaBC: -3.632%.
Result for O=C(COC[C@H]1CC[C@H]2[C@H](CCN2c2ccccn2)O1)N1CCCC1 was TcHisRS: 4.294%; CoaBC: 5.762%.
Result for O=C(O)CCc1cc2n(n1)CCCN(C(=O)c1ccc(F)cc1F)C2 was TcHisRS: -3.518%; CoaBC: 2.292%.
Result for CN(C1CCN(c2ccccn2)CC1)S(=O)(=O)c1cccs1 was TcHisRS: 12.07%; CoaBC: 11.98%.
Result for CC(C)N1CCC(c2nnc(CN3CCCC3)n2C2CC2)CC1 was TcHisRS: 4.348%; CoaBC: -9.879%.
Result for O=C(CCCn1cncn1)N1CCCC1c1nc(-c2ccccc2)no1 (centres undefined) was TcHisRS: 5.056%; CoaBC: 7.445%.
Result for Cc1ccc(CN2CCC[C@@H]3CN(C(=O)c4ccco4)C[C@@H]32)s1 was TcHisRS: 7.438%; CoaBC: 5.462%.
Result for COCc1ncn2c1CN(C(=O)c1cnc3ccccc3c1)CC2 was TcHisRS: 6.542%; CoaBC: 0.2469%.
Result for CCNC(=O)[C@@H]1C[C@@H](NC(=O)c2cccnc2O)CN1Cc1ccsc1 was TcHisRS: 1.653%; CoaBC: 11.84%.
Result for O=C(c1ccnnc1)N1CCO[C@H]2[C@H](Oc3cccnc3)CC[C@@H]21 was TcHisRS: 9.135%; CoaBC: 4.235%.
Result for CC(=O)NCC1CCN(C(=O)NCc2ccc3c(c2)OCCO3)CC1 was TcHisRS: 5.422%; CoaBC: 4.024%.
Result for O=C(c1nn(-c2ccccc2F)cc1O)N1CCCSCC1 was TcHisRS: -10.53%; CoaBC: 2.041%.
Result for CC(C)c1cc(C(=O)N2C[C@@H](C)[C@](O)(C3CC3)C2)[nH]n1 was TcHisRS: 1.63%; CoaBC: 11.16%.
Result for CCc1nnc(CN(C)Cc2cccc(C(=O)Nc3ccnn3C)c2)o1 was TcHisRS: 5.464%; CoaBC: -2.2%.
Result for CC(C)c1nccn1C(C)C(=O)NC1Cc2ccccc2C1 (centres undefined) was TcHisRS: 2.717%; CoaBC: 3.306%.
Result for Cc1nn(C)c2c(NCCCn3cccn3)nc(C3CC3)nc12 was TcHisRS: 0.8696%; CoaBC: 6.005%.
Result for Cc1cc(NC(=O)CN2CCc3nn(C)c(=O)cc3C2)on1 was TcHisRS: 4.878%; CoaBC: -28.27%.
Result for Cc1nc(CN2CCCN(c3nccs3)CC2)no1 was TcHisRS: 6.857%; CoaBC: 0.2389%.
Result for COc1cc(C(=O)N(CCC#N)Cc2ccccn2)cc(OC)c1C was TcHisRS: 2.075%; CoaBC: -23.66%.
Result for O=C(NCC(F)F)c1cc(-c2ccccc2)nc2ncnn12 was TcHisRS: 4.386%; CoaBC: -21.93%.
Result for Cc1nc(CCNC(=O)NCC(c2ccco2)N(C)C)cs1 (centres undefined) was TcHisRS: 8.434%; CoaBC: -61.07%.
Result for CCOCC1CN(Cc2cccnc2)Cc2nn(C)cc21 (centres undefined) was TcHisRS: 4.132%; CoaBC: -9.664%.
Result for CN(C(=O)c1ccc(C#N)cc1)c1nnc(C2CCOC2)s1 (centres undefined) was TcHisRS: 5.085%; CoaBC: -32.45%.
Result for CC(C)c1cnc(CN(C)C2CCN(CCn3cc(C#N)cn3)C2)o1 (centres undefined) was TcHisRS: 8.309%; CoaBC: 7.329%.
Result for CCOc1ccc(CN2CCN(CCOC)[C@@H]3CS(=O)(=O)C[C@@H]32)cc1 was TcHisRS: 2.041%; CoaBC: 7.54%.
Result for CCN(CC)CC1CN(Cc2ccco2)Cc2nccn2C1 (centres undefined) was TcHisRS: 7.035%; CoaBC: 7.27%.
Result for COCc1nc(CNC2CCCc3c2cnn3C(C)(C)C)cs1 (centres undefined) was TcHisRS: 3.947%.
Result for CNc1nc(CNC(=O)Nc2cccc(-c3nnco3)c2)cs1 was TcHisRS: 2.682%; CoaBC: 5.734%.
Result for CC(C)N1CCC[C@H]1C(=O)NCC1CCN(c2cnn(C)c(=O)c2)CC1 was TcHisRS: 1.02%; CoaBC: 1.091%.
Result for CC(CC(=O)N1CCN(c2cnccn2)CC1)c1ccc(F)cc1 (centres undefined) was TcHisRS: 5.422%; CoaBC: 0.6098%.
Result for CNC(=O)COc1ccc(CNc2c(Cl)cccc2C#N)cc1 was TcHisRS: 6.18%; CoaBC: 0.2012%.

The first 3 entries again:

compound	TcHisRS	CoaBC
CC(C)c1nc(C2CCCN(C(=O)CS(=O)(=O)C(C)C)C2)no1 (centres undefined)	3.448%	6.013%
O=C(c1cnccn1)N1C[C@@H]2CC[C@H](C1)N(C(=O)CCc1ccsc1)C2	-0.5025%	0.3619%
CCC(C(=O)N(C)CCC1=CCN(C)CC1)c1ccccc1 (centres undefined)	4.878%	1.646%

From ChEMBL document CHEMBL3988442, “University of Dundee, Small-Polar-MMV Screening Library” (2021).